{"sequences": {"note": "By UniProt entry, the sequences of proteins in these tests, tags left out. Residues count along the entry.", "UniProt Q9WU72, residues 127-309": "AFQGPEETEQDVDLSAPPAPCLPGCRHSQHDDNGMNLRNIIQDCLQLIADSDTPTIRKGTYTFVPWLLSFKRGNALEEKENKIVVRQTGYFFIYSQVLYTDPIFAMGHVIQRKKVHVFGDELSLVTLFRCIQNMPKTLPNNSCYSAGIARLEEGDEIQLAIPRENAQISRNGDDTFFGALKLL"}, "source": "patent US20100280227A1", "molecular_target": "mouse BR3-Fc (mouse)", "experiment": "ELISA: mBAFF-Flag titrated on coated mBR3-Fc, then F(ab)'2 phage #3 (V3) added and detected", "note": "These are yes or no findings as the source states them, for the method shown. Some results given as binding are weak or reduced against the parent protein; the word gives no strength."}
{"substance": "mBAFF-Flag protein (from UniProt Q9WU72 127-309) (ligand)", "values": [{"measurement": "binding", "value": "binds"}]}
